PubChem BioAssay AID686937 – Drosophila RNAi Screening Center | 2013
Purpose: 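Genes in the fly needed for secretion of protein constitutively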 (primary screen). System: Drosophila S2 cells expressing secreted horseradish peroxidase. Reagent: long dsRNA against Drosophila genes. Timing: about 5.5 days (5 days dsRNA, then 12 h reporter induction). Challenge: reporter expression induced after 5 days of dsRNA, read 12 h later; inducer not stated. Read-out: 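After 5 days of dsRNA and 12 h of reporter induction, medium peroxidase read by chemiluminescence and scored as per-plate z-score; higher values mean more reporter released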. Reading the numbers: z-score: higher = more reporter secreted into medium.
The screen tested about 23,000 reagents; this is a random part of those that have a named target and a result. 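Reduced-secretion tags in replicate 1 do not always agree with the z-scores; no criterion for assigning the tags was given.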 Reagents against one gene are numbered here. Names joined by + are all predicted targets of the reagent. Not given: the amount of reagent.

target	reagent no.	z-score, replicate 1	z-score, replicate 2	z-score, replicate 3	z-score, replicate 4	phenotype, replicate 1
CG14641 (GeneID 40529)	1	-0.67	0.19			
CG17261 (GeneID 33522)	1	-0.21	0.17			
Pka-R2 (GeneID 36041)	1	0.49	0.39			
nmdyn-D7 (GeneID 41174)	1	0.29	-0.11			
side (GeneID 43300)	1	0.32	0.37	0.42	0.35	
side (GeneID 43300)	2	0.25	0.26			
side (GeneID 43300)	3	0.3	0.34			
side (GeneID 43300)	4	0.27	-0.01			
side (GeneID 43300)	5	0.52	0.64			
PH4alphaNE1 (GeneID 43625)	1	0.21	0.18			
lncRNA:CR32660 (GeneID 3771836)	1	-0.18	0.11			
UQCR-14 (GeneID 32586)	1	0.05	-0.57			
CG33259 (GeneID 2768950)	1	0.24	0.15			
CG3635 (GeneID 35447)	1	-0.04	0.03			
MED1 (GeneID 40403)	1	-2.28	-1.49			reduced secretion
CG13375 (GeneID 30976)	1	0.46	0.42			
CG10333 (GeneID 35112)	1	-1.51	-0.64			reduced secretion
Ctr1C (GeneID 43668)	1	0.11	0.24			
CG6356 (GeneID 42893)	1	0.37	0.35			
CG10469 (GeneID 38696)	1	0.09	0.26			
SkpD (GeneID 32995)	1	0.5	0.09			
CG15891 + CG15892	1	0.13	0.4			
CG15891 + CG15892	2	0.35	0.56			
c(2)M (GeneID 34964)	1	0.1	0.33			
sob (GeneID 33581)	1	0.16	0.24			
Ddx56 (GeneID 33118)	1	-1.6	0.02			
Wdr62 (GeneID 33367)	1	0.33	0.27			
Wdr62 (GeneID 33367)	2	0.53	0.18			
Wdr62 (GeneID 33367)	3	-0.03	-0.04			
Wdr62 (GeneID 33367)	4	0.41	-0.2			
CG18530 (GeneID 59241)	1	0.18	0.35			
CG34461 (GeneID 5740547)	1	0.56	0.4			
sprt (GeneID 246397)	1	0.15	0.21			
Strn-Mlck (GeneID 36753)	1	0.25	-0.02			
Strn-Mlck (GeneID 36753)	2	0.27	0.42			
Strn-Mlck (GeneID 36753)	3	0.59	0.2			
Strn-Mlck (GeneID 36753)	4	0.28	0.58			

Not a retest: 18 of the entries above.
target	reagent no.	z-score, replicate 1	z-score, replicate 2	z-score, replicate 3	z-score, replicate 4	phenotype, replicate 1
CG14641 (GeneID 40529)	1	-0.67	0.19			
CG17261 (GeneID 33522)	1	-0.21	0.17			
Pka-R2 (GeneID 36041)	1	0.49	0.39			
nmdyn-D7 (GeneID 41174)	1	0.29	-0.11			
side (GeneID 43300)	1	0.32	0.37	0.42	0.35	
side (GeneID 43300)	2	0.25	0.26			
side (GeneID 43300)	3	0.3	0.34			
side (GeneID 43300)	4	0.27	-0.01			
side (GeneID 43300)	5	0.52	0.64			
PH4alphaNE1 (GeneID 43625)	1	0.21	0.18			
lncRNA:CR32660 (GeneID 3771836)	1	-0.18	0.11			
UQCR-14 (GeneID 32586)	1	0.05	-0.57			
CG33259 (GeneID 2768950)	1	0.24	0.15			
CG3635 (GeneID 35447)	1	-0.04	0.03			
MED1 (GeneID 40403)	1	-2.28	-1.49			reduced secretion
CG13375 (GeneID 30976)	1	0.46	0.42			
CG10333 (GeneID 35112)	1	-1.51	-0.64			reduced secretion
Ctr1C (GeneID 43668)	1	0.11	0.24			

Further entries:
target	reagent no.	z-score, replicate 1	z-score, replicate 2	z-score, replicate 3	z-score, replicate 4	phenotype, replicate 1
Cyp6t3 (GeneID 36318)	1	0.06	0.21			
COX1 (retired record) (GeneID 192469)	1	0.35	0.1			
RunxA (GeneID 4379817)	1	0.17	0.29			
RunxA (GeneID 4379817)	2	-2.39	-3.4			reduced secretion
RunxA (GeneID 4379817)	3	0.63	0.34	0.27	0.32	
RunxA (GeneID 4379817)	4	0.66	-0.21			
CG33630 (GeneID 3772504)	1	0.31	-0.36			
CG8870 (GeneID 41645)	1	0.32	0.44			
CG15570 (GeneID 31366)	1	0.41	0.29			
wgn (GeneID 32849)	1	-0.13	0.4			
CG17646 (GeneID 33354)	1	0.43	0.29			
CG15429 (GeneID 33637)	1	0.45	0.44			
Spps (GeneID 42882)	1	0.39	-0.03			
Alms1b + Alms1a	1	0.44	0.34			
lncRNA:CR31526 (GeneID 318783)	1	-0.1	-0.52			
Gli (GeneID 34927)	1	-0.04	0.27			
CG8475 (GeneID 34114)	1	0.06	0.29			
Nmda1 (GeneID 36419)	1	0.26	0.17			
su(Hw) (GeneID 41740)	1	0.21	0.24			
CG13423 (GeneID 37315)	1	-0.16	0.36			
CG9992 (GeneID 32605)	1	0.35	-0.01			
CG9992 (GeneID 32605)	2	-0.42	-0.37			
cry (GeneID 42305)	1	0.39	0.32			
CG43376 (GeneID 12798198)	1	0.25	0.33			
CG15602 (GeneID 32533)	1	0.58	0.39			
CG17752 (GeneID 42337)	1	0.39	0.5			
CG32983 (GeneID 50434)	1	0.21	-0.21			
CG8372 (GeneID 34121)	1	0.46	0.38			
Ugt307A1 (GeneID 33993)	1	-0.12	0.18			
Lztr1 (GeneID 31037)	1	0.53	0.58			
Lztr1 (GeneID 31037)	2	0.32	0.4			
vrs (GeneID 41537)	1	0.25	0.19			
CG6138 (GeneID 34454)	1	0.63	0.31			
IntS11 (GeneID 43506)	1	0.79	0.79			
fd96Cb (GeneID 43011)	1	0.22	0.12			
CG13930 (GeneID 38210)	1	0.42	0.28			
Nep7 (GeneID 43356)	1	0.42	0.51			
CG32425 (GeneID 40273)	1	-2.93	-1.17			reduced secretion
CG32425 (GeneID 40273)	2	0.14	0.2			
unc-119 (GeneID 31664)	1	0.33	0.39			
CG15861 (GeneID 37990)	1	0.31	-0.29			
CG4239 (GeneID 32606)	1	0.36	-0.37			
CG16824 (GeneID 5740834)	1	0.63	0.18			
CG7579 (GeneID 39714)	1	0.17	0.1			
CG6071 (GeneID 39308)	1	0.31	0.17			
CG34427 (GeneID 5740165)	1	0.26	0.11			
CG33203 (GeneID 43414)	1	0.29	0.18			
CG33203 (GeneID 43414)	2	0.26	0.18			
CG33203 (GeneID 43414)	3	0.29	0.41	-0.32	-0.19	
pigeon (GeneID 35200)	1	0.28	0.28			
kirre (GeneID 31292)	1	0.27	0.36			
CG12229 (GeneID 39945)	1	0.12	0.16			
twi (GeneID 37655)	1	0.41	0.09			
Mst98Cb (GeneID 43367)	1	0.08	0.45	0.59	0.01	
Mst98Cb (GeneID 43367)	2	0.19	-0.24			
pasha (GeneID 43728)	1	-0.25	-0.08			
CG2616 (GeneID 40915)	1	0.02	0.1			
nkt (GeneID 39264)	1	0.53	0.33			
CG11396 (GeneID 40296)	1	0.55	-0.1			
CG5390 (GeneID 34383)	1	-0.28	-0.37			
mfas (GeneID 41455)	1	0.27	0.19			
Atg5 (GeneID 31666)	1	0.56	0.43			
Las (GeneID 40259)	1	0.41	-0.17			
AIMP1 (GeneID 35892)	1	0.23	0.25			
frtz (GeneID 33349)	1	0.26	0.19			
Sol1 (GeneID 41513)	1	0.2	0.35			
Sol1 (GeneID 41513)	2	0.13	0.2			
Sol1 (GeneID 41513)	3	0.14	-0.14			
